Some of the results follow. The main result of the screen is listed elsewhere. These columns were measured beside it and carry no call. Most of these compounds were active or inconclusive in the main read-out, so they are no random draw. The note in brackets gives the kind of curve behind each potency; many fits are weak.
Test: qHTS Assay to Find Inhibitors of Chronic Active B-Cell Receptor Signaling
Conditions: ABC-DLBCL IkBa-CBG/CBR reporter, luminescence ratio (green luciferase fused to IkBa over red control in TMD8 lymphoma cells), 4 h
How it was run: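 Doxycycline induced both beetle luciferases in TMD8 lymphoma cells; IKK-driven degradation limits the IkappaBalpha-fused green signal, while red luminescence normalises for cell number and nonspecific effects. Compounds tested up to 46 uM, 4 hrs.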

[1] = measured here: CBR red luminescence, cell number
[2] = measured here: IkBa-CBG green luminescence

In the case of `O=[N+]([O-])c1ccc(NCCCNS(=O)(=O)c2ccccc2)cc1`, the AC50 [1] is reported as 12.6 µM [falling, partial curve, poor fit].
For `Cc1cnc(C(=O)N2CCc3c([nH]c4ccccc34)C2c2ccc(F)cc2)cn1` (stereo unspecified), the AC50 [1] was 0.631 µM [falling, full curve, poor fit].
For `Cc1sc2nc(CN3CCCC3)nc(Cl)c2c1C`, the AC50 [1] was 25.9 µM [falling, partial curve, poor fit].
In the case of `O=C(Nc1nccc(-c2cccs2)n1)c1cccs1`, the AC50 [1] is reported as 7.08 µM [falling, partial curve].
In the case of `CC(NC(=O)Cc1ccc(F)cc1)C(c1cccs1)N1CCN(C)CC1` (stereo unspecified), the AC50 [1] is reported as 20.6 µM [rising, partial curve].
For `Cc1c(C)c2c(OCC(=O)N[C@@H](CC(C)C)C(=O)O)cc3c(c2oc1=O)CCC(C)(C)O3`, the AC50 [1] was 8.91 µM [falling, partial curve, poor fit].
In the case of `CCOC(=O)C1CCN(C(=O)Nc2ccc(C)c(Cl)c2)CC1`, the AC50 [1] is reported as 5.62 µM [falling, full curve, poor fit].
With `Cc1cc(C(=O)OCC(=O)c2cccs2)ccc1[N+](=O)[O-]` the AC50 [1] was 29.1 µM [rising, partial curve, poor fit].
In the case of `CCCNC(=O)COc1ccc(-c2nn(C)c(=O)c3ccccc23)cc1`, the AC50 [1] is reported as 2.51 µM [rising, partial curve, poor fit].
For `COc1ccc(CN2C(=O)c3ccccc3C2=O)cc1C(=O)N(C)CC(=O)Nc1ccc(F)cc1`, the AC50 [1] was 6.51 µM [falling, single point].
With `Cc1ccnc(NC(=O)c2cc3cc(F)ccc3s2)c1` the AC50 [1] was 5.62 µM [falling, partial curve].
With `CCOC(=O)c1[nH]c(Cc2[nH]c(C(=O)OCC)c(C)c2CCC(=O)OC)c(CCC(=O)OC)c1C` the AC50 [1] was 3.16 µM [rising, partial curve, poor fit].
With `CCN(CC)CCCNC(=O)c1cn(C)c2ccc(S(=O)(=O)N(C)C)cc2c1=O` the AC50 [1] was 1.16 µM [falling, partial curve, poor fit].
With `Nc1nn(-c2ccccc2)c(N)c1N=Nc1ccc2c(c1)OCO2` the AC50 [1] was 8.2 µM [falling, partial curve].
For `COc1ccc(N=C(C)C2=C(O)CSC2=O)cc1`, the AC50 [1] was 3.26 µM [rising, single point].
In the case of `CC(=O)Nc1cccc(/C(C)=N/NC(=O)c2ccc(NS(=O)(=O)c3cccs3)cc2)c1`, the AC50 [1] is reported as 11.2 µM [falling, partial curve].
With `COC(=O)CCCCC1SCC(NC(=O)OC)C1NC(=O)OC` (stereo unspecified) the AC50 [1] was 3.98 µM [rising, full curve, poor fit].
With `CCOC(=O)CCCCCC(=O)Nc1ccc2c(c1)C(=O)N([C@H](C)CO)C[C@@H](C)[C@H](CN(C)S(=O)(=O)c1cn(C)cn1)O2` the AC50 [1] was 29.1 µM [rising, single point].
In the case of `Cc1csc(NC(=O)CCCNC(=O)c2ccc(Cl)cc2)n1`, the AC50 [1] is reported as 6.51 µM [rising, full curve].
With `O=C1COc2ccc(C(=O)CSc3nnc(Cc4cccs4)n3-c3ccccc3)cc2N1` the AC50 [1] was 20.6 µM [rising, single point].
With `CCOc1ccc(C(=O)NCC(c2cccs2)S(=O)(=O)c2ccccc2)cc1` (stereo unspecified) the AC50 [1] was 0.398 µM [rising, full curve].
For `N#C/C(=C\c1cccnc1)C(=O)Nc1ccccc1[N+](=O)[O-]`, the AC50 [1] was 14.1 µM [falling, partial curve, poor fit].
With `Cc1cccc(C(=O)N2CCc3cc(CNC(=O)CSc4ccccc4)ccc32)c1` the AC50 [1] was 35.5 µM [falling, single point].
In the case of `O=S(=O)(Nc1ccc(-n2cccc2)cc1)c1ccc(F)cc1`, the AC50 [1] is reported as 25.1 µM [rising, single point].
In the case of `O=C(CCl)N1CCN(S(=O)(=O)Cc2ccccc2)CC1`, the AC50 [1] is reported as 14.6 µM [falling, single point].
With `Nc1nc(Nc2ccccc2)nc(NCc2ccco2)c1[N+](=O)[O-]` the AC50 [1] was 23.1 µM [falling, partial curve, poor fit].
With `CCn1c(O)c(C=NC2CCCC(C)C2C)sc1=S` (stereo unspecified) the AC50 [1] was 12.6 µM [falling, single point].
For `C=CCn1c(SC2CCOC2=O)nc2sc(CC)cc2c1=O` (stereo unspecified), the AC50 [1] was 5.62 µM [rising, partial curve].
In the case of `S=C(NCc1ccco1)Nc1ccc(Cl)cc1`, the AC50 [1] is reported as 32.6 µM [falling, single point].
In the case of `C=CCN1C(=O)C(CC(=O)O)SC1=Nc1cccc([N+](=O)[O-])c1` (stereo unspecified), the AC50 [1] is reported as 35.5 µM [rising, single point].
For `O=C(Oc1ccccc1)c1ccc2nccnc2c1`, the AC50 [1] was 0.731 µM [rising, full curve, poor fit].
With `NC(=O)C1CCN(CC(=O)c2c[nH]c3ccc(F)cc23)CC1` the AC50 [1] was 29.1 µM [falling, single point].
In the case of `O=C(Nc1ccccc1N1CCOCC1)c1cc(Cl)c2c(c1)OCO2`, the AC50 [1] is reported as 23.1 µM [rising, partial curve, poor fit].
For `CSc1ncccc1C(=O)Nc1nc2ccc(Oc3ccccc3)cc2s1`, the AC50 [1] was 1.64 µM [rising, full curve, poor fit].
In the case of `COc1ccc(-c2nc3nc(C)cc(=O)n3[nH]2)cc1`, the AC50 [1] is reported as 8.2 µM [falling, partial curve].
In the case of `Clc1ncnc2c1oc1ccccc12`, the AC50 [1] is reported as 16.4 µM [rising, single point].
In the case of `Cc1cc(C(=O)CN2CCN(CC(=O)Nc3cccc(F)c3)CC2)c(C)n1C1CC1`, the AC50 [1] is reported as 16.4 µM [falling, single point].
With `Cc1ccc(OCC(=O)Nc2cccc3nsnc23)c(C)c1` the AC50 [1] was 32.6 µM [falling, single point].
For `CCOC(=O)c1sc(-c2ccc(Cl)cc2)nc1O`, the AC50 [1] was 12.6 µM [falling, single point].
With `CCNC(=O)[C@H]1O[C@@H](n2cnc3c(N)nc(NCCc4ccc(CCC(=O)O)cc4)nc32)[C@H](O)[C@@H]1O` the AC50 [2] was 0.398 µM [falling, full curve, poor fit].
In the case of `CCOc1ccc(C(=O)N/N=C/c2ccc(SC)cc2)cc1`, the AC50 [1] is reported as 0.259 µM [falling, full curve].
With `CCOC(=O)N1CCN(C(=O)c2noc3c2COc2ccccc2-3)CC1` the AC50 [1] was 3.98 µM [rising, partial curve, poor fit].
In the case of `Cc1ccc(NC(=O)C(OC(=O)c2ccc(NC(N)=O)cc2)c2ccccc2)cc1Cl` (stereo unspecified), the AC50 [1] is reported as 29.1 µM [falling, partial curve, poor fit].
For `N#CCCNS(=O)(=O)c1ccc(C(=O)OCCCOC(=O)c2ccc(S(=O)(=O)NCCC#N)cc2)cc1`, the AC50 [1] was 22.4 µM [falling, partial curve].
In the case of `C/C(=N\NC(=O)c1ccc(NS(=O)(=O)c2cccs2)cc1)c1cccs1`, the AC50 [1] is reported as 14.1 µM [falling, partial curve].
With `C=CCO/N=C(/CCC)C1=C(N)CC(C)(C)CC1=O` the AC50 [1] was 35.5 µM [rising, single point].
With `COc1ccc(NC(=O)CNc2cccc(C#N)c2)cc1Cl` the AC50 [1] was 8.2 µM [rising, partial curve].
In the case of `CCOC(=O)CSc1nnc(NC(=O)c2ccc3c(c2)OCO3)s1`, the AC50 [1] is reported as 2.24 µM [falling, full curve].
For `COc1ccc2cc(C(=O)N(C)Cc3ccccc3)[nH]c2c1`, the AC50 [1] was 0.447 µM [rising, full curve, poor fit].
For `Cc1ccc(C(=O)NC(=S)Nc2ccc(-c3ccc(CO)o3)cc2)cc1`, the AC50 [1] was 3.16 µM [falling, partial curve, poor fit].
In the case of `CC1=[N+](C)c2c(ccc3cccnc23)C1(C)C`, the AC50 [1] is reported as 17.8 µM [falling, partial curve] and the AC50 [2] is reported as 35.5 µM [rising, partial curve, poor fit].
For `Cc1ccc(-c2nc(-c3ccccn3)no2)cc1Cl`, the AC50 [1] was 3.98 µM [falling, full curve].
With `CCCCSCc1nc2ccccn2c1Br` the AC50 [1] was 12.6 µM [rising, partial curve, poor fit].
With `O=C(Nc1nnc(CCN2CCCCC2)s1)c1ccc(Cl)cc1Cl` the AC50 [1] was 0.631 µM [rising, full curve, poor fit].
With `COc1cc(C(=O)NCCOc2ccc(F)cc2)c(Br)c(OC)c1OC` the AC50 [1] was 17.8 µM [rising, partial curve, poor fit].
With `COc1ccc(C(=O)OCC(=O)N(C)C2CCS(=O)(=O)C2)cc1S(=O)(=O)N1CCCc2ccccc21` (stereo unspecified) the AC50 [1] was 10 µM [rising, partial curve, poor fit].
In the case of `Cc1ccc2nc(N3CCN(C(=O)C4COc5ccccc5O4)CC3)sc2c1` (stereo unspecified), the AC50 [1] is reported as 12.6 µM [rising, partial curve, poor fit].
With `CCOC(=O)c1c(C)nc(C)c2c(=O)oc3ccccc3c12` the AC50 [1] was 2.82 µM [rising, partial curve, poor fit].
For `CCCC(=O)Nc1ccc(Br)cn1`, the AC50 [1] was 9.2 µM [rising, partial curve, poor fit].
In the case of `COc1ccc(OC)c(/C=C2\SC(=S)N(NS(=O)(=O)c3ccccc3)C2=O)c1`, the AC50 [1] is reported as 7.08 µM [falling, partial curve, poor fit] and the AC50 [2] is reported as 15.8 µM [rising, partial curve, poor fit].
For `Cc1ccc(NC2SC(=O)N(CC(=O)O)C2=O)cc1` (stereo unspecified), the AC50 [1] was 23.1 µM [rising, single point].
With `Cc1cccc(/C=N/NC(=O)c2cc3c(s2)-c2ccccc2CC3)c1` the AC50 [1] was 3.66 µM [falling, partial curve, poor fit].
For `CCOC(=O)N1CCN(c2ncnc3c2cnn3-c2ccc(OC)cc2)CC1`, the AC50 [1] was 35.5 µM [rising, single point].
With `C(=C\c1ccccc1)/CSc1nnc(-c2cnccn2)n1Cc1ccco1` the AC50 [1] was 16.4 µM [falling, partial curve].

Source: PubChem BioAssay AID493014 (National Center for Advancing Translational Sciences (NCATS), 2011)
